Test results from article PMC12333907.
No constants are given. Whether binding was seen depends on the method and setting. Binding seen in cells or lysates may run through a third protein. Some entries that bind do so weakly or less than the wild type.

Chains of the proteins cited; added tags and fusions are not shown.
UniProt Q8IWT6: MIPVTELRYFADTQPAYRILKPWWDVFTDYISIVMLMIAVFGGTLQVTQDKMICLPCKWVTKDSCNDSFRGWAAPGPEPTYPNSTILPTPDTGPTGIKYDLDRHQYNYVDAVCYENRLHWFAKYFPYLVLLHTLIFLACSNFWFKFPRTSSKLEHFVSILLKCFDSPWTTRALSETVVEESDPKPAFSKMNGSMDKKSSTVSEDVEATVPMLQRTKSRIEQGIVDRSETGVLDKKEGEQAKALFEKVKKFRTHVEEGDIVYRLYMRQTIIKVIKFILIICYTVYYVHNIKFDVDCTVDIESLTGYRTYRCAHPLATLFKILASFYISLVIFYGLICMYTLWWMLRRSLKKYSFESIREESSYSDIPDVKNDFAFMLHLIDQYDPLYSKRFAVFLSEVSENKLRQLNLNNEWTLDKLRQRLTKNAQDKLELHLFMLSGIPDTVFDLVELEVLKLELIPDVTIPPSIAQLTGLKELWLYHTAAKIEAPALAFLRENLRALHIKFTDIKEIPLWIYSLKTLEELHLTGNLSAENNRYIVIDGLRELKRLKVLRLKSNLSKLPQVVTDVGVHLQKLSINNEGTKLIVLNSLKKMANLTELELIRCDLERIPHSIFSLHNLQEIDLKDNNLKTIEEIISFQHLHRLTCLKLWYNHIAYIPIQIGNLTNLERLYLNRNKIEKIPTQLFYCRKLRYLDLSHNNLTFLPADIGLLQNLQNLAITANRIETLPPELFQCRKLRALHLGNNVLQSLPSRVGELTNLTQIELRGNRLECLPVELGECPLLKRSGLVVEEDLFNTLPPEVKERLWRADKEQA
UniProt Q6NSJ5: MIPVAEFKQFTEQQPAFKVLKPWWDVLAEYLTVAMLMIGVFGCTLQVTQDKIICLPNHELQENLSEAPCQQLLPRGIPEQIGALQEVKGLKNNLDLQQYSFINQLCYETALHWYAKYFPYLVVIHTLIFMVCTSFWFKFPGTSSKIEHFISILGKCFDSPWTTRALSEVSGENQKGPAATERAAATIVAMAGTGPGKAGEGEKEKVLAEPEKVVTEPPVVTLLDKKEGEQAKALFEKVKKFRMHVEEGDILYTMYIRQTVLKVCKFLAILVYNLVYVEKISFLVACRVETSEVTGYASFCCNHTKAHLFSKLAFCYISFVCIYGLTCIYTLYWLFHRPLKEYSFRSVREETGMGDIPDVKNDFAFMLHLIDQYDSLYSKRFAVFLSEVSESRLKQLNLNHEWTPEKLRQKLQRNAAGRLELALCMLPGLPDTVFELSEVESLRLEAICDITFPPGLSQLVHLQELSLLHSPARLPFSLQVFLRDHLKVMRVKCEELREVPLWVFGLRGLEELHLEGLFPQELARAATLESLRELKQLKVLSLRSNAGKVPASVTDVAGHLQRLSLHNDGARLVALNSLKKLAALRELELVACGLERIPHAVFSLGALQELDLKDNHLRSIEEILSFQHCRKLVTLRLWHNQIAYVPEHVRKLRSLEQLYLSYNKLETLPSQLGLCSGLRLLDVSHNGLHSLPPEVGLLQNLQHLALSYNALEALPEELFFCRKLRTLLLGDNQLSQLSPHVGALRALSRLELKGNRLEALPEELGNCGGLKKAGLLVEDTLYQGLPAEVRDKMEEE

Target: LRRC8A‐Cerulean (UniProt Q8IWT6)
Experiment: FRET or BRET; sensitised emission inter-subunit FRET (cFRET) in living HeLa cells co-transfected with LRRC8A-Cerulean (donor) and LRRC8E-Venus (acceptor); room temperature; isotonic solution, then hypotonic solution, S1P, SEW-2871 or blockers

For “LRRC8E‐Venus (from UniProt Q6NSJ5 1-796)”, the binding was “binds”.
